For some assays here: Part of at least one peptide drawing is inferred or uncertain, most often the ends. For some assays here: For at least one compound, name, drawing or mass did not settle the structure. Where a SMILES comes first, the peptide text is derived from it.
Legend:
[1] = target: enzymes (Bioprint panel) (Homo sapiens, UniProt Q9BYF1); assay type: biochemical; details: ACE-2 (h); read-out: Reference Compound IC50
[2] = target: enzymes (Bioprint panel) (Homo sapiens, UniProt Q9UQM7); assay type: biochemical; details: CaMK2alpha (h); read-out: Reference Compound IC50

Sequences of proteins named here, by UniProt entry; tags and fusion partners are left off. Residues count along the entry.
UniProt Q9BYF1, 18-805: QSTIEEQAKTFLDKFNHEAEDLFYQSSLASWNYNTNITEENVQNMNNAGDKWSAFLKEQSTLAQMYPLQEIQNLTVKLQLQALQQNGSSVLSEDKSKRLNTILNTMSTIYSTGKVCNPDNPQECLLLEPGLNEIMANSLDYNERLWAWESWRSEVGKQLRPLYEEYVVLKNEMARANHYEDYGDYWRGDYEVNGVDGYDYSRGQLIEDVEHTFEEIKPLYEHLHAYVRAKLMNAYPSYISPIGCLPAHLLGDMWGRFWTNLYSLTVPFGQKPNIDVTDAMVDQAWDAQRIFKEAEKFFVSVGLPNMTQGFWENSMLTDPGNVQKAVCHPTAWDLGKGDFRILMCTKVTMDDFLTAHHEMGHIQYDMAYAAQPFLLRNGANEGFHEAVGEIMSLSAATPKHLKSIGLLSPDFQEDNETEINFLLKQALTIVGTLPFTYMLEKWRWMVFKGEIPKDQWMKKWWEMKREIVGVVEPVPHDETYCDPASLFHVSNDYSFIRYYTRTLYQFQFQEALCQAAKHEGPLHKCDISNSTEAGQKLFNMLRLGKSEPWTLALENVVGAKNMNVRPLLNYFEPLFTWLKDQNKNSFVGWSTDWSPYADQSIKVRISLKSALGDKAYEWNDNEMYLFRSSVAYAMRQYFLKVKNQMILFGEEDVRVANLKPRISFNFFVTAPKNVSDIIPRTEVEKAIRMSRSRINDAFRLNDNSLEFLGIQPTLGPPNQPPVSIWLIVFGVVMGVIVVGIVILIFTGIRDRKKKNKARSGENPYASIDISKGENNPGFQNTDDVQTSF
UniProt Q9UQM7, whole entry: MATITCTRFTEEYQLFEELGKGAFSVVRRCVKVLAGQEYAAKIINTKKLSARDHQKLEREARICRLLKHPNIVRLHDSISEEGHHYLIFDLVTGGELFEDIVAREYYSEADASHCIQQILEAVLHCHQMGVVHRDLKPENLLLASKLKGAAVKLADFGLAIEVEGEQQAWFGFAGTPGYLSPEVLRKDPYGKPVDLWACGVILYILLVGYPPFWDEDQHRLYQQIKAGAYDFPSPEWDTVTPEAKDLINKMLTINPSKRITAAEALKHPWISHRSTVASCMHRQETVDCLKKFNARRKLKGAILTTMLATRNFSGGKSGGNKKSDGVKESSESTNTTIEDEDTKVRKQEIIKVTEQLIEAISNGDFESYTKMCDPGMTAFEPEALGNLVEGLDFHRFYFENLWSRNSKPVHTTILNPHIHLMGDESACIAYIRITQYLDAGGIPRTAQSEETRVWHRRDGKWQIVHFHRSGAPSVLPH

| SMILES | IC50 [1] | IC50 [2] |
| --- | --- | --- |
| CC(=O)NCC(=O)N[C@@H](CC(=O)O)C(=O)N[C@@H](Cc1ccc(O)cc1)C(=O)N[C@@H](CO)C(=O)N[C@@H](Cc1cnc[nH]1)C(=O)N[C@H]1CSSC[C@@H](C(=O)N[C@H](C(=O)N[C@@H](Cc2ccc(O)cc2)C(=O)N2CCC[C@H]2C(=O)N[C@@H](CC(=O)O)C(=O)N2CCC[C@H]2C(=O)N[C@@H](CCC(=O)O)C(=O)NCC(=O)NCC(=O)NCC(N)=O)[C@@H](C)O)NC(=O)[C@H](CCCCN)NC(=O)[C@H](Cc2c[nH]c3ccccc23)NC(=O)[C@H](Cc2c[nH]c3ccccc23)NC(=O)[C@@H]2CCCN2C(=O)[C@H](Cc2ccc(O)cc2)NC(=O)[C@H](Cc2ccc(O)cc2)NC(=O)[C@H](CCCNC(=N)N)NC(=O)[C@H](CC(C)C)NC(=O)[C@@H]2CCCN2C(=O)[C@H](CO)NC1=O [AC-GG-26-NH2] | 200 nM | – |
| CC(C)C[C@H](NC(=O)[C@H](C)NC(=O)[C@H](CC(=O)O)NC(=O)[C@@H](NC(=O)[C@H](C)NC(=O)[C@H](CCC(=O)O)NC(=O)[C@H](CCC(N)=O)NC(=O)[C@H](CCCNC(=N)N)NC(=O)[C@H](CCCNC(=N)N)NC(=O)[C@H](CC(C)C)NC(=O)[C@H](C)NC(=O)[C@H](CCCCN)NC(=O)[C@@H](N)CCCCN)C(C)C)C(=O)O [AIP] (H-KKALRRQEAVDAL-OH; N-terminus and C-terminus assumed) | – | 92 nM |
